Data reported in article PMC9493395.
These are yes or no findings as the source states them, for the method shown. Binding seen in cells or lysates may run through a third protein. A result given as binding can be weak or reduced; the word gives no strength. Where a sequence is shown, tags or fusion partners need not be part of it.

T1: FAM83A (family with sequence similarity 83 A), wild type, FLAG-tagged (Mus musculus) (UniProt Q8K2P2)
T1 sequence: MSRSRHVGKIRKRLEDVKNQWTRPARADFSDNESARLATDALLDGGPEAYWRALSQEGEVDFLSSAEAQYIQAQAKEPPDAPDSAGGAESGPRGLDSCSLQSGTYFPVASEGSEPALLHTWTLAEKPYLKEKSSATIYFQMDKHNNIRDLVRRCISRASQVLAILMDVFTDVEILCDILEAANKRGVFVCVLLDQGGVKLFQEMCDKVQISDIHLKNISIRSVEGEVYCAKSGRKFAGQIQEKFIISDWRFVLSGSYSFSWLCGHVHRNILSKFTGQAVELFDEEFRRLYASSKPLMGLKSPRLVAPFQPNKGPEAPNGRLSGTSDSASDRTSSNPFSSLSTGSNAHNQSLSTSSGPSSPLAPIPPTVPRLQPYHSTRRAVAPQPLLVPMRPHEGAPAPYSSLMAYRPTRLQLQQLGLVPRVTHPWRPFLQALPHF

B1: FAM83A (family with sequence similarity 83 A), wild type, FLAG-tagged (protein, UniProt Q8K2P2-1 1-436)
chain: MSRSRHVGKIRKRLEDVKNQWTRPARADFSDNESARLATDALLDGGPEAYWRALSQEGEVDFLSSAEAQYIQAQAKEPPDAPDSAGGAESGPRGLDSCSLQSGTYFPVASEGSEPALLHTWTLAEKPYLKEKSSATIYFQMDKHNNIRDLVRRCISRASQVLAILMDVFTDVEILCDILEAANKRGVFVCVLLDQGGVKLFQEMCDKVQISDIHLKNISIRSVEGEVYCAKSGRKFAGQIQEKFIISDWRFVLSGSYSFSWLCGHVHRNILSKFTGQAVELFDEEFRRLYASSKPLMGLKSPRLVAPFQPNKGPEAPNGRLSGTSDSASDRTSSNPFSSLSTGSNAHNQSLSTSSGPSSPLAPIPPTVPRLQPYHSTRRAVAPQPLLVPMRPHEGAPAPYSSLMAYRPTRLQLQQLGLVPRVTHPWRPFLQALPHF

Experiments:
[1] = target: T1, FAM83A (family with sequence similarity 83 A), wild type, FLAG-tagged (Mus musculus); assay: co-IP; 3T3-L1 cells transfected with 3xFLAG-CMV-10 plasmid (WT or DUP1669-deleted Fam83a), harvested 48 h later; lysate precleared with protein A/G dynabeads; anti-flag or anti-CK1 added, 4 °C overnight; protein A/G agarose 2 h; washed with cold PBS 3 times; Western blot
[2] = target: casein kinase 1 (CK1) (mouse (endogenous in 3T3-L1)); assay: as above

Molecule | binding [1] | binding [2]
casein kinase 1 (CK1) (mouse (endogenous in 3T3-L1)) (enzyme) | binds | –
B1 | – | binds
